This note sets out measurements from paper PMC5078065.

Chains of the proteins cited; added tags and fusions are not shown.
UniProt P06748: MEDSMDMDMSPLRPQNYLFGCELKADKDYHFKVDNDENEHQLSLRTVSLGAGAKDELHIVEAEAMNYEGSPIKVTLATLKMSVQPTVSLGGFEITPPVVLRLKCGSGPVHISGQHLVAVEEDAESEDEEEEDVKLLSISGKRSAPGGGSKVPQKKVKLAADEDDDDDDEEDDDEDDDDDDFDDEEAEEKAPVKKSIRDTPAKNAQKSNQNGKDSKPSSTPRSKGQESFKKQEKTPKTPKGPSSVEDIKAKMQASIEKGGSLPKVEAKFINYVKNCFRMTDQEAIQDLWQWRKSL
UniProt P08670: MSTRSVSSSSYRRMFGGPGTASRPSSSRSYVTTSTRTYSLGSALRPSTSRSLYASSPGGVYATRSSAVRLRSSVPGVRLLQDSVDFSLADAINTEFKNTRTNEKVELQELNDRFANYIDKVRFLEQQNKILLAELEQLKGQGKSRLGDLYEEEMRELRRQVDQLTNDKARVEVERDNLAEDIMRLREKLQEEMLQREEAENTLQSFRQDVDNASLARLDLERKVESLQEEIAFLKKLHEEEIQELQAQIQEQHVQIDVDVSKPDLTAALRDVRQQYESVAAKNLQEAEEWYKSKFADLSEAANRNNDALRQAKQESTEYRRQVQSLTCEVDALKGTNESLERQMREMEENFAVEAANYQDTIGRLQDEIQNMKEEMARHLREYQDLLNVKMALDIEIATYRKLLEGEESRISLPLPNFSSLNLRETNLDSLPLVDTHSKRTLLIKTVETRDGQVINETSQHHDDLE
UniProt P07355: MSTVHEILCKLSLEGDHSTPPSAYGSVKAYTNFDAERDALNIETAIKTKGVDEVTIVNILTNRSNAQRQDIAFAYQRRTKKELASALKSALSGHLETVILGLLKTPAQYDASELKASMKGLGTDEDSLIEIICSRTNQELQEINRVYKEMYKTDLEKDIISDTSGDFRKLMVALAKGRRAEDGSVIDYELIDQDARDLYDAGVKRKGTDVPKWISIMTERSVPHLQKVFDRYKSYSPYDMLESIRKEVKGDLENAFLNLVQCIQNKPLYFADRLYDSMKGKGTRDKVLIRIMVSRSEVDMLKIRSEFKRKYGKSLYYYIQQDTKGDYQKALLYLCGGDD
UniProt P06733: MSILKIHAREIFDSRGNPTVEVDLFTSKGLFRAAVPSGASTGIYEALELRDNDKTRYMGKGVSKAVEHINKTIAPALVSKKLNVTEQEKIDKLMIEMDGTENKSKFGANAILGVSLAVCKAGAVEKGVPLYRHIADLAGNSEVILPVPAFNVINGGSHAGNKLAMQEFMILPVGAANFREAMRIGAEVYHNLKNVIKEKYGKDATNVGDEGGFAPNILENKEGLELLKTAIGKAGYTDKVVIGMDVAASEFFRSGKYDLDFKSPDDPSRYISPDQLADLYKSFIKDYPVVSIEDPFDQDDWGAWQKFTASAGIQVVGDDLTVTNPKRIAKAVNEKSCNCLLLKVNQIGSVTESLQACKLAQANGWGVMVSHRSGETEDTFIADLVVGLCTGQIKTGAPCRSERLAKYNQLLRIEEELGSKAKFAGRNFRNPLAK
UniProt P20700: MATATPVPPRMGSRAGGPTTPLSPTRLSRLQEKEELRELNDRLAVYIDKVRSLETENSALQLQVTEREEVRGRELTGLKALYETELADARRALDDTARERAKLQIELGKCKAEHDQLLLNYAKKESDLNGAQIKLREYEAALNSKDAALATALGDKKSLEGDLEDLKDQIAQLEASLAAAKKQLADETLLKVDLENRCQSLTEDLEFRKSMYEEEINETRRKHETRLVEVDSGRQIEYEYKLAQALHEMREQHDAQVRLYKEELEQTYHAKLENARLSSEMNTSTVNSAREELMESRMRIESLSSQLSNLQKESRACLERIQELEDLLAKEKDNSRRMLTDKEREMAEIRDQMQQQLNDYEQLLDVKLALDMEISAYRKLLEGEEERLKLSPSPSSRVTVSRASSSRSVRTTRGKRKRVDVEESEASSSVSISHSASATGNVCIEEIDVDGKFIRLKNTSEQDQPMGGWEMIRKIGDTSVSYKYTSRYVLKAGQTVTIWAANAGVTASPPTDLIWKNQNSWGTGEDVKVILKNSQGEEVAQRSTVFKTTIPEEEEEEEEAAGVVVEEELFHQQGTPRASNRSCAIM

Results are given in words; binding and its absence hold for the method and conditions named. In cells and extracts the contact can be indirect. These calls come from enrichment with a bait or labelling near it, and not all partners need be listed.

This experiment concerns the target T1, ubiquitin associated protein 2 (human) (UniProt Q5T6F2).
T1 sequence: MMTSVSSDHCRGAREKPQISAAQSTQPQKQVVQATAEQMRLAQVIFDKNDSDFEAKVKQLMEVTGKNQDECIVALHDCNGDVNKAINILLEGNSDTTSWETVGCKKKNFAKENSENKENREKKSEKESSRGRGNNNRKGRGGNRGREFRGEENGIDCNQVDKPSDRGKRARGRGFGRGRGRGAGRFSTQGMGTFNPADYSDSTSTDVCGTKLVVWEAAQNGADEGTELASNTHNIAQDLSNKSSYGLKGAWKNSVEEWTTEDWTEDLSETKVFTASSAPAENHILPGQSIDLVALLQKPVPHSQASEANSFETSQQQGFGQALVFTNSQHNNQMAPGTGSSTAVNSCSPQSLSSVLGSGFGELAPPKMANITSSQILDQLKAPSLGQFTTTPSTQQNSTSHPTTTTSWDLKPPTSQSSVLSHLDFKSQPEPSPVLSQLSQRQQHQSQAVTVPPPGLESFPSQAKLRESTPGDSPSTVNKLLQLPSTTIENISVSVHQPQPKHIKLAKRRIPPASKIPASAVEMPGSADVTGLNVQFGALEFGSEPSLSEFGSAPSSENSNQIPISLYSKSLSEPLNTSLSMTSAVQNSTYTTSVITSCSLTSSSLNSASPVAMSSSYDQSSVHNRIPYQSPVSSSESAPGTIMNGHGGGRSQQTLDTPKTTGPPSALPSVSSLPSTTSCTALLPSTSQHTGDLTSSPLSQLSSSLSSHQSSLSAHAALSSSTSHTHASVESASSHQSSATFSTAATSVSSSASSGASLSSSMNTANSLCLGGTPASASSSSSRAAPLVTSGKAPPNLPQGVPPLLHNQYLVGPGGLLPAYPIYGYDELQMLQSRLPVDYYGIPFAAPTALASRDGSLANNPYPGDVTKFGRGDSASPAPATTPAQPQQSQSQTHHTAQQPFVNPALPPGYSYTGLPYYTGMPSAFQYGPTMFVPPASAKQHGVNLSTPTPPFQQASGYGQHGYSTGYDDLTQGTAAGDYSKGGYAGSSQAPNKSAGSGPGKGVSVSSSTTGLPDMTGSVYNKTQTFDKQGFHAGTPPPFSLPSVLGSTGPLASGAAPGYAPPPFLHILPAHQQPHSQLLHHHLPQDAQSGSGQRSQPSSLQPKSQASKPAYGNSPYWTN
Put plainly: affinity purification with mass spectrometry; co-IP of UBAP2 combined with 2D-LC-MS/MS in Hep3B and 293T cells; proteins found in both cell lines.
Consider “nucleolar phosphoprotein B23 (from UniProt P06748 1-294)”, for which the binding result is “binds”.
With vimentin (from UniProt P08670 1-466), the binding result was “binds”.
As for Annexin A2 (from UniProt P07355 1-339), the binding entry is recorded as “binds”.
Consider “alpha-enolase (from UniProt P06733 1-434)”, for which the binding entry is reported as “binds”.
Regarding lamin B1 (from UniProt P20700 1-586), the binding result is recorded as “binds”.
